Publication PMC12040169 (PLOS Biology, 2025)
The list shows a part of the results.

Test system: T1, CTL2-GFP (C. trachomatis L2/434/Bu, GFP-expressing)
T1 construct: L2/434/Bu, GFP-expressing
Parameters: species or system HeLa; Intracellular C. trachomatis growth in HeLa cells, bulk GFP fluorescence relative to DMSO
Conditions: bulk GFP, single well; 28.5 h, 10 µM; inhibitor

Point of comparison: CC(C)CCNC(=O)CC(=O)Nc1ccc(C(=O)O)cc1 [CBK286721], “% of control remaining” value 107.063%. Against it:
- Cc1nc2c(OCC(=O)C(C)(C)C)cccn2c1N(C)C(=O)C1CCCCC1 [CBK147145] — higher, 113.967%
- CSCCOc1nc2ccccc2nc1N1CCCC1 [CBK115770] — higher, 131.4%
- CC(=O)N1CCC(N2C[C@H](O)C[C@H]2c2nc(C3CC3)no2)CC1 [CBK288845] — lower, 106.54%
- COc1ccc(-c2cc(C(=O)Nc3cnc4ccccc4c3)cnc2-c2cccc(C)c2)cn1 [CBK037425] — higher, 108.364%
- O=C1COc2ccccc2C/C=C/C[C@H]2CN(C(=O)CN3CCCCCC3=O)CC[C@H]2N1 [CBK292116] — higher, 119.799%
- CNCC1CCN(S(=O)(=O)c2ccc(OCc3ncnn3C)cc2)CC1 [CBK304309C] — higher, 129.549%
- O=C(CCNC(=O)c1ccc(Br)o1)NCc1ccccc1Cl [CBK294454] — higher, 145.441%
- Cc1cc(C)nc(SCc2csc(N)n2)n1 [CBK019838] — lower, 97.1569%
- COc1ccc(C(=O)c2sc3nc(C)cc(C)c3c2N)cc1 [CBK115362] — lower, 106.204%
- O=C(CN1CCC(c2ccc(F)cc2)CC1)N1CCCCC1 [CBK283640] — lower, 86.0049%
- NC(=O)CN1CCC(Oc2nccnc2OCc2cccnc2)CC1 [CBK083165] — lower, 69.1898%
- Cc1cc(-c2nc3ncccc3o2)ccc1NC(=S)NC(=O)c1cc2ccccc2o1 [CBK268922] — higher, 119.719%
- O=c1[nH]c2ncc(-c3ccncc3)nc2n1C1CCCC1 [CBK064972] — higher, 147.564%
- C[C@@H]1CN(C(=O)c2nccc3ccccc23)C[C@H](C)O1 [CBK200233] — higher, 128.936%
- O=C(NC(c1ccc2ccccc2n1)c1cccs1)C1CCNCC1 (centres unmarked) [CBK148331] — lower, 100%
- O=C1Nc2cc(Cl)ccc2C(=O)N2CC[C@H](NC(=O)N3CCOCC3)[C@@H]12 [CBK289340] — higher, 111.854%
- O=C(CC1CCN(C(=O)CC2CCCCC2)CC1)NCc1ccccc1N1CCCC1 [CBK285962] — higher, 121.206%
- COc1cccc(NC(=S)NCCCN2CCOCC2)c1 [CBK264548] — lower, 74.7755%
- CN1CCN(CCOC(=O)N2CCCC(C(F)(F)F)C2)CC1 (centres unmarked) [CBK200207] — higher, 113.094%
- Fc1ccc(-c2nccnc2OCc2ccccn2)cc1 [CBK106894] — higher, 112.417%
- C=CCNC(=O)N[C@H]1[C@H](O)[C@@H](N2CCN(c3ccccc3OC)CC2)[C@@H]2OC[C@H]1O2 [CBK288818] — lower, 102.793%
- CC(CCc1ccccc1)NC(=O)CC1COc2ccccc2O1 (centres unmarked) [CBK266203] — higher, 124.165%
- Cc1c(F)cccc1CNCc1ccc(CNC(=O)OC(C)(C)C)cc1 [CBK056708] — higher, 168.145%
- CC(=O)C(C)n1c(CN2CCCC(C)C2)nc2c1c(=O)n(C)c(=O)n2C (centres unmarked) [CBK306061] — higher, 138.545%
- CC(C)(C)C(=O)NCCn1c(=O)oc2ccccc21 [CBK282885] — higher, 113.689%
- CN1Cc2ccccc2CC1C(=O)N1CCc2ncc(Cl)cc2C1 (centres unmarked) [CBK282568] — higher, 144.777%
- Cc1cnc(CNC(=O)N2CCc3ccccc3C2)cn1 [CBK155166] — higher, 161.774%
- CC(=O)N1CCCC(c2cc3cccnc3n2CCN2CCCC2)C1 (centres unmarked) [CBK284591] — higher, 110.894%
- Cn1c(Cc2ccccc2)nnc1Sc1ccc(C(=O)O)cc1[N+](=O)[O-] [CBK265038] — higher, 120.679%
- CC(C)[C@@H](N)C(=O)N1CC[C@@H]2NC(=O)[C@@H](Cc3ccccc3)NC(=O)C3(C/C=C/C[C@H]2C1)CCOCC3 [CBK292201] — lower, 103.95%
- O=C(NCCn1nc(-c2cccs2)ccc1=O)c1cccs1 [CBK283836] — higher, 123.02%
- COc1ccc(CCC(=O)Nc2ncn(Cc3cccc(C)c3)n2)cc1 [CBK288227] — higher, 118.682%
- CCCNCC(=O)N1CCN(C(=O)c2ccc(C)cc2)CC1 [CBK025546] — higher, 112.548%
- CN(C)CCNCCCSc1ccc(Cl)cc1 [CBK267794C] — lower, 94.0305%
- COc1ccc(Oc2coc3c(CN(C)C)c(O)ccc3c2=O)cc1 [CBK263653] — higher, 137.696%
- N#Cc1ccc(-c2cc(NCCc3ccncc3)ncn2)cc1 [CBK037787] — higher, 230.169%
- CCN1CCN(C(=O)CN(CC)S(=O)(=O)c2ccc3ccccc3c2)CC1 [CBK267913] — higher, 111.347%
- OCc1ncccc1OCCOC1CCCCO1 (centres unmarked) [CBK045702] — lower, 94.949%
- CC(NC(=O)C1C2C=CC(C2)C1C(=O)O)c1ccccc1 (centres unmarked) [CBK265384] — higher, 110.083%
- COc1cccc(NC(=O)N2CC[C@H]3CC(=O)N(c4ccccc4)CC[C@H]3C2)c1 [CBK288787] — lower, 90.9498%
- COC(=O)N/N=C(/C)c1ccc(C)cc1 [CBK016149] — higher, 137.623%
- COc1ccc(-n2ccn(C(=O)CCC3CCCC3)c2=O)cc1 [CBK106595] — higher, 179.309%
- O=C(O)c1cccc(-c2cc(N3CCN(Cc4cccnc4)CC3)n3nccc3n2)c1 [CBK037080] — higher, 197.535%
- O=C1c2ccccc2C(c2ccc(NC(=O)c3cccc4ccccc34)cc2)(c2ccc(NC(=O)c3cccc4ccccc34)cc2)c2ccccc21 [CBK261162] — higher, 111.794%
- Cc1c(OCc2ccc(C(=O)O)cc2)ccc2c(-c3ccccc3)cc(=O)oc12 [CBK296080] — lower, 71.3891%
- NCC(=O)Nc1ccc(Cl)c(Cl)c1 [CBK046317] — lower, 104.129%
- CC(NC(=O)N(CCC#N)C1CCCCC1)c1ccccc1 (centres unmarked) [CBK156382] — lower, 105.014%
- O=C(Nc1nccs1)c1nccnc1-c1ccc(COc2ccccc2)cc1 [CBK050839] — higher, 219.2%
- COCC(=O)Nc1ccc2c(c1)NC(=O)C(C)(C)CO2 [CBK287658] — higher, 136.935%
- C1C/C(=N/N=C2\CCCc3nonc32)c2nonc2C1 [CBK006721] — higher, 119.161%
- CC(C)(C)NS(=O)(=O)c1ccc(NC(=O)COc2ccc3ccccc3c2Br)cc1 [CBK267015] — higher, 175.335%
- NC(=O)C1CCN(Cc2nc(-c3cccc(C(F)(F)F)c3)no2)CC1 [CBK304276] — lower, 97.3751%
- CN1CCN(C(=O)C2CCCCC2C(=O)O)CC1 (centres unmarked) [CBK287092] — higher, 110.844%
- COc1ccc(C(=O)Nc2cccc3nsnc23)cc1OC [CBK260973] — lower, 96.5285%
- COc1ccccc1CN[C@@H]1CCC[C@H]1Cc1cc(C)no1 [CBK283005] — lower, 101.131%
- COc1ccc(C2(O)CCN(CC(O)c3ccc4c(c3)CCC4)CC2)cc1 (centres unmarked) [CBK286334] — higher, 119.281%
- O=C(N[C@H]1CO[C@H]2[C@@H]1OC[C@@H]2Nc1nccc(-c2cccs2)n1)c1cccs1 [CBK289518] — lower, 61.3696%
- NCCNc1cccc2c1ccn2S(=O)(=O)c1ccccc1 [CBK028470C] — lower, 83.4162%
- C(=C\CSc1nc2ccccc2[nH]1)/CSc1nc2ccccc2[nH]1 [CBK263090] — lower, 95.3783%
- CSCCCNC(=O)c1ccc(-c2ccoc2)nc1 [CBK156262] — lower, 105.748%
- O=C(O)CC(NCc1ccccc1)C(=O)Nc1ccccc1Br (centres unmarked) [CBK267118] — higher, 123.824%
- CCOC(=O)C1CCCN(Cc2c[nH]nc2-c2ccc(OC)cc2F)C1 (centres unmarked) [CBK307304] — higher, 129.384%
- O=C(NC1CCCc2c1cnn2-c1ccc(F)cc1)C1CC1 (centres unmarked) [CBK283928] — higher, 108.681%
- COCCNc1nc(-c2ccc(N3CCOCC3)cc2)ccc1C(=O)N1CCN(C)CC1 [CBK105943] — higher, 109.957%
- CC1=NNC(=O)C1Cc1c(Cl)cccc1Cl (centres unmarked) [CBK067754] — lower, 100.728%
- CCSc1nc(=O)c2c(n1C)NC(=O)CC2c1ccc(OC)cc1 (centres unmarked) [CBK307542] — higher, 122.644%
- Cc1cc2ncc3c(n2n1)CC1CCC3N1C(=O)CCn1cccc1 (centres unmarked) [CBK283157] — lower, 101.667%
- COc1ccc(C(=O)N2Cc3ccccc3C2)c(OC)n1 [CBK200317] — higher, 116.863%
- Cc1cc(-c2cn3cc(C(=O)NCCCCO)nc3c(=O)n2C)c(C)o1 [CBK307037] — lower, 95.0056%
- CCN1CCN(Cc2c(O)ccc3c(=O)c(Oc4ccccc4Cl)c(C(F)(F)F)oc23)CC1 [CBK266627] — higher, 138.25%
- O=C(NCC(c1ccccc1)c1ccccc1)N1CCN(Cc2ccccc2)CC1 [CBK155651] — higher, 143.125%
- N#CCCN(C(=O)Nc1ccccc1Cl)C1CCCCC1 [CBK156366] — higher, 119.922%
- CS(=O)(=O)c1ccc(-c2nccnc2NCc2cccnc2)cc1 [CBK036977] — lower, 103.606%
- COc1ccc(Br)cc1S(=O)(=O)Nc1c(C(=O)Nc2ccc(F)cc2)[nH]c2ccccc12 [CBK050095] — higher, 112.202%
- COc1ccc2cc(C(=O)NCCn3ccnc3C)n(C)c2c1 [CBK282544] — higher, 127.171%
- COc1ccc(OC)c(C2=NO[C@@](CC(=O)O)(C(=O)NC3CCCCC3)C2)c1 [CBK286672] — lower, 102.209%
- CC(C(=O)Nc1cccc(N2CCNCC2)c1)c1ccccc1 (centres unmarked) [CBK004770T] — higher, 113.157%
- O=C(O)c1cc(NC(=O)c2ccc3c(c2)C(=O)N(Cc2cccnc2)C3=O)cc(C(=O)O)c1 [CBK266761] — lower, 94.5562%
- O=C(O)C1CC=CCC1C(=O)NCc1ccncc1 (centres unmarked) [CBK265481] — higher, 131.088%
